Measured values published in US20110293603A1.
These are yes or no findings as the source states them, for the method shown. Some results given as binding are weak or reduced against the parent protein; the word gives no strength.

Protein sequences, listed by entry. Tags and fused reporters are not part of them. Residues count along the entry.
UniProt Q15109, residues 23-342: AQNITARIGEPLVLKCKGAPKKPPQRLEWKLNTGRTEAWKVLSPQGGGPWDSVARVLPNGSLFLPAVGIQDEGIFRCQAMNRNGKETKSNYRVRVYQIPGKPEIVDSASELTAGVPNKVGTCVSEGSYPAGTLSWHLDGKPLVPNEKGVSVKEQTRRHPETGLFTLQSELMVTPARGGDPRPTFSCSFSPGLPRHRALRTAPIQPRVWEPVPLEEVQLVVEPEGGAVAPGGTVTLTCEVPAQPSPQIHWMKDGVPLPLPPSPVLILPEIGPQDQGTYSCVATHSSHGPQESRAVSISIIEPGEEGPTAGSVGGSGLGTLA

Tests used:
[1] = molecular target: extracellular part of recombinant human RAGE fused to human Fc (R&D Systems Cat No 1145-RG) (human) (UniProt Q15109); assay: ELISA, rhRG coated at 2 ug/ml, nanobody 4-1000 nM, detection with anti-Myc 9E10
[2] = molecular target: extracellular part of recombinant human RAGE fused to human Fc (R&D Systems Cat No 1145-RG) (human) (UniProt Q15109); assay: immunoprecipitation of rhRG with nanobody on Talon beads, SDS-PAGE (legend of FIG. 1)
[3] = molecular target: extracellular part of recombinant human RAGE fused to human Fc (R&D Systems Cat No 1145-RG) (human) (UniProt Q15109); assay: immunoprecipitation of rhRG with nanobody on Talon beads, SDS-PAGE, anti-RAGE detection
[4] = molecular target: extracellular part of recombinant human RAGE fused to human Fc (R&D Systems Cat No 1145-RG) (human) (UniProt Q15109); assay: immunoprecipitation: myc/His-tagged nanobody on Talon beads, rhRG pulled out of solution, SDS-PAGE and blot with mouse anti-RAGE (upper part) and mouse anti-myc (lower part)

Measured: binding

B1: Nanobody 108D3 (VHH)
VHH: EVQLVESGGGLVQAGGSLRLSCAASGRTFSNYSMGWFRQAPGKEREFVATISWSGALTHYTDSVKGRFTISRDNAKNTVYLQMNSLKPEDTAVYYCAASDSDYGNKYDYWGQGTQVTVSS
binds: [1] | [2] | [3]

B2: Nanobody 108G10 (VHH)
VHH: EVQLVESGGGLVQAGGSLRLSCAASGRIFNNYAMGWFRQAPGKEREFVAGISWSGDSTLYADSVKGRFTTSRDNAKNTVYLQMNSLKPEDTANYYCAEKQGADWAPYDYWGQGTQVTVSS
binds: all assays above

B3: Nanobody 108D11 (VHH)
VHH: EVQLVESGGGLVQAGGSLRLSCAVSGRTFSTDAFGWFRQAPGKEREFVSAMRWNGSSSYYADLVKGRFTISRDNAKNTVYLLMNSLKPEDTAVYYCTAGKRYGYYDYWGQGTQVTVSS
binds: all assays above

B4: Nanobody 108E3 (VHH)
VHH: EVQLVESGGGLVQAGGSLRLSCAASGRTVSDMTMGWFRQAPGKERVFVAAISNSGLSTYYQDSVKGRFTISRDTANNTVALQMNSLKPEDTAVYFCAARSGWSGQYDYWGQGTQVTVSS
binds: [1] | [2] | [3]

B5: Nanobody 108G12 (VHH)
VHH: EVQLVESGGGLVQAGGSLRLSCVASELTFSLYRMGWFRQAPGKEREFVSAMSTSGAGTYYADSVKGRFTISRDNPKNTVYLQMNSLKPEDTAVYYCVAGVRFGVYDYWGQGTQVTVSS
binds: all assays above
